From paper PMC11277202
No constants are given. Whether binding was seen depends on the method and setting. In cells and extracts the contact can be indirect. Some entries that bind do so weakly or less than the wild type.

The chains behind the UniProt entries cited, without tags or fusion partners.
UniProt Q9JIF0: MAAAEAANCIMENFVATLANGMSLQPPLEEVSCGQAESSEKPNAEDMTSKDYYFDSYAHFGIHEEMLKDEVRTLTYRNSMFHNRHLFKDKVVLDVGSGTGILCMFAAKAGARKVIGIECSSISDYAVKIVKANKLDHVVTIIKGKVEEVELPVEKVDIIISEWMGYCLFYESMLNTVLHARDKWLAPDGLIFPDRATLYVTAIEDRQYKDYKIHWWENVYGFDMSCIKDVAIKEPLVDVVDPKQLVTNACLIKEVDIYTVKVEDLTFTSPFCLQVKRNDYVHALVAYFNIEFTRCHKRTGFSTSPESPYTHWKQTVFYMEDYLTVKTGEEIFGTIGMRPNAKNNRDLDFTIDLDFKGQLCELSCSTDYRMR
UniProt O35732: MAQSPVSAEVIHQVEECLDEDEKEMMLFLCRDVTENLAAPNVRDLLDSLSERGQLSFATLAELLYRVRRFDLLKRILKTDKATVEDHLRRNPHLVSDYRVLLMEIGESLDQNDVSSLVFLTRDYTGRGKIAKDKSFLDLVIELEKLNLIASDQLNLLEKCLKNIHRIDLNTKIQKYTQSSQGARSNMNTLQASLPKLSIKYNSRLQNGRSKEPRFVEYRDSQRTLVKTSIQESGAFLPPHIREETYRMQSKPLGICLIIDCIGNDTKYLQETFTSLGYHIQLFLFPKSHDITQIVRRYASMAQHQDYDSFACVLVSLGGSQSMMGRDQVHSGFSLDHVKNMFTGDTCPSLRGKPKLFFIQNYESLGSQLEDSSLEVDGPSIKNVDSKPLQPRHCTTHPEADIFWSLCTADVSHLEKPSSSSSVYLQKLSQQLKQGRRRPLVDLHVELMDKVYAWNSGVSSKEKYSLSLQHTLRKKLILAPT

Molecular target: PRMT1 with Myc tag, expressed from the adenovirus Ad-PRMT1 in mouse primary hepatocytes (UniProt Q9JIF0)
Test: co-IP; lysate of mouse primary hepatocytes infected by Ad-PRMT1 (IP RIPA buffer lacking SDS); immunoprecipitation with Myc-tag antibodies and Protein A/G beads at 4 °C overnight, blot for Myc and CFLAR; IgG as control

binding: binds
Substance: Caspase 8 and FADD-like apoptosis regulator (CFLAR), endogenous in mouse primary hepatocytes (from UniProt O35732 1-481)
